Patent publication US20220411491A1
No constants are given. Whether binding was seen depends on the method and setting. Binding calls can cover weak binding; strength is not graded here. Blank lines part the entries; values can stand above or below the binder they belong to.

Molecular target: cynomolgus GPRC5D (cynomolgus)
Assay: cell ELISA on CHO cells expressing cynomolgus GPRC5D

binding: binds
B1: 5F11 IgG (antibody, V domains shown)
VH: EVQLVESGGGLVQPGRSLKLSCAASGFSFSNYGMAWVRQAATKGLEWVASISTGGGNTYYRDSVKGRFIVSRDNAKNTQYLQMDSLRSEDTATYYCTRHDRGGLYWGQGVMVTVSS
VL: DIVMTQAPLSVSVTPGESASISCRSSKSLLHSNGITYVYWYFQKPGKSPQVLIYRMSNLASGVPDRFSGSGSETDFTLKISRVEAEDVGIYHCGQLLENPYTFGAGTELELK

binding: binds
B2: 07A04 IgG (antibody, V domains shown)
VH: QVTLKESGPGILQPSHTLSLTCSFSGFSLSTYGMGVNWIRQPSGKGLEWLASIWWNGNTYNNPSLKSRLTVSKDTSNNQAFLKVTSVDTADTATYYCVHTRGIIRGRGLFFDYWGQGVMVTVSS
VL: DVQMTQSPYNLAASPGESVSINCKASKSISKYLAWYQQKPGKANKLLIYDGSTLQSGIPSRFSGSGSGTDFTLTIRSLEPEDFGLYYCQQHNEYPLTFGSGTKLEIKR

binding: binds
B3: 10B10 IgG (antibody, V domains shown)
VH: EVQLVESGGGLVQPGRSMKLSCAASGFTFTNFYMAWVRQAPTKALEWVASINTGGGYTYYRDSVKGRFTVSRDNTRSTLYLQMDSLRSEETATYYCARHLTYYGRYYYFDYWGQGVMVTVSS
VL: DIQLTQSPHSLSASLGETVSIECLASEGISNYLAWFHQKPGKSPQLLIYYASSLQDGVPSRFSGSGSGTQYSLKISNMQPEDEGVYYCQQGYKYPLTFGSGTKLEIK

binding: binds
B4: 5E11 IgG (antibody, V domains shown)
VH: ELQLEQSGGGLVQPGGSLTLSCAASGFTFSKYAMAWVRQAPTKGLEWVASISTGGVNTYYRDSVKARFTISRDNAKNTQYLQMDSLRSEDTATYYCATHTGDYFDYWGQGVMVTVSS
VL: DIVLTQSPALAVSPGQRATISCRASQSVSISGINLMNWYQQKPGQQPKLLIYHASILASGIPTRFSGSGSGTDFTLTIDPVQADDIATYYCQQTRESPLTFGSGTNLEIK
